Measurements reported in patent EP0808325B1, “ANDROSTANE AND PREGNANE SERIES FOR ALLOSTERIC MODULATION OF GABA RECEPTOR” (priority 1994, dated 1996).
pIC50: −log10 of the molar value. For at least one compound, name, drawing or mass did not settle the structure.

Experiments:
(+)bicuculline = conditions: data from Swinyard & Woodhead 1982, NP = no protection; cited from earlier work
[1] = system: metrazol induced convulsions; conditions: data from Swinyard & Woodhead 1982, NP = no protection; cited from earlier work
maximal electroshock = conditions: data from Swinyard & Woodhead 1982; cited from earlier work
picrotoxin = conditions: data from Swinyard & Woodhead 1982, NP = no protection; cited from earlier work
strychnine = conditions: data from Swinyard & Woodhead 1982, NP = no protection; cited from earlier work
GR complex = test: modulation of [35S]TBPS binding in rat cerebral cortex P2 homogenate; design: species or system Sprague-Dawley rats; IMAX: unit not given here
Procedure: We performed several experiments to determine the nature of the modulation of [^35S]TBPS as affected by the compounds of the invention.
These procedures were performed as follows:
Brains from male Sprague-Dawley rats were removed immediately following sacrifice and the cerebral cortices dissected over ice. […] Briefly, the cortices were gently homogenized in 0.32 M sucrose followed by centrifugation at 1000 x g for 10 minutes. The supernatant was collected and centrifuged at 9000 x g for 20 minutes. The resultant P2 pellet was suspended as a 10% (original wet weight/volume) suspension in 50 mM Na/K phosphate buffer (pH 7.4) 200 mM NaCI to form the homogenate.
One hundred microliter […] aliquots of the P2 homogenate (0.5 milligrams (mg) protein) were incubated with 2 nanomolar (nM) [^35S]TBPS (70-110 curies/millimole;, New England Nuclear, Boston, MA) in the presence or absence of the naturally occurring steroids or their synthetic derivatives to be tested. The tested compounds were dissolved in dimethylsulfoxide (Baker Chem. Co., Phillipsbury, NJ) and added to the incubation mixture in 5 µL aliquots. […] The effect and specificity of GABA (Sigma Chem. Co., St. Louis, MO) was evaluated by performing all assays in the presence of GABA plus (+)bicuculline (Sigma Chem. Co.). […] Filter-bound radioactivity was quantitated by liquid scintillation spectrophotometry. […]

Structure (SMILES)	ED50 BIC ((+)bicuculline) [mg/kg]	ED50 MTZ [1] [mg/kg]	ED50 MES (maximal electroshock) [mg/kg]	ED50 PICRO (picrotoxin) [mg/kg]	ED50 STR (strychnine) [mg/kg]	pIC50 (GR complex; concentration of compounds to inhibit 50% of control [35S]TBPS binding, 2 nM [35S]TBPS, 25°C, 90 minutes, no unit printed)	IMAX (GR complex; maximum inhibition of [35S]TBPS binding, I* = Inactive)
CCC1(c2ccccc2)C(=O)NC(=O)NC1=O [Phenobarbital]	38	13	22	28	95	–	–
CCCC(CCC)C(=O)O [Valproate]	360	149	272	387	293	–	–
C[C@]12CC[C@@H]3c4ccc(O)cc4CC[C@H]3[C@@H]1CC[C@@H]2O [estradiol, reference compound]	–	–	–	–	–	< 6.00	I*
